From patent publication USRE35053E, “Amines useful in producing pharmaceutically active CNS compounds” (The Upjohn Company, priority 1992, dated 1995)
Counter-ions that a name gives are not always drawn. Some of these results come from one statement about several compounds together.

Experiments:
angiogenesis = assay: fertile egg or chick embryo assay of Folkman (inhibition of angiogenesis / tumor growth); format: in vivo; settings: chick embryo; 50 μg/10 μl with heparin; avascular zone 4 mm or greater
Experimental: According to this procedure compounds which are considered to be "active" (i.e, antiangiogenic) give an avascular zone of 4 mm or greater in some embryos when tested at 50 μg/10 μl in the presence of 50 μg/10 μ of heparin.

[1] = tested on: conjugated diene formation in rat brain synaptosomes; assay: Conjugated diene formation assay (lipid peroxidation); format: biochemical; settings: 100 μM (or less) of the drug, active = 50% inhibition or more
arachidonic acid = assay: Arachidonic Acid Antagonism Assay (AAAA); format: in vivo, mouse (Charles River male CF-1); settings: mice; IV, 15 min before sodium arachidonate; outside 95% confidence interval of control LD50
Experimental: While not necessary to determine arachidonic acid antagonism, the above assay has been modified as follows: Charles River male CF-1 mice weighing […] are treated IV with the test compound dissolved in 1.0% Tween-80 and 0.1% hydrochloric acid in distilled water. 0 2 ml total volume. Fifteen minutes later sodium arachidonate (90% pure) in physiological (normal) […] is injected into the tail vein. The LD50 is measured using the Spearman-Karber method with a log dose interval of 0.05 (N-6). Compounds which elevate the LD50 outside of the 95% confidence interval of the control LD50 are considered to be "active".

[2] = tested on: MDA formation in rat brain synaptosomes; assay: Malonyldialdehyde (MDA) Formation Assay (lipid peroxidation); format: biochemical; settings: active = 50% inhibition or more at 200 μM or less
From the text: The MDA assays of Buege and Aust, Methods in Enzymology, Fleisher and Packer Editors. Academic Press, 1978, New York, Vol LII, p 302-310 and Kohn and Liversedge, J. Pharmacol. Exp. Ther. 82. […] Since iipid peroxidation is involved in the pathophysiology of central nervous system trauma, compounds which inhibit MDA formation are useful in treating the conditions listed below.
While not necessary to determine MDA formation, the above assays have been modified as follows: rat brain synaptosomes are prepared as described in the Example about the conjugated diene assay, except that the final wash of the synaptosomes and final suspension are in physiological (normal) saline in which the pH has been adjusted to 7 0. The synaptosomes are incubated for 10 min at 37° in physiological (normal) saline pH 7.0 (total volume=100 ul) containing; 10 ul synaptosomal suspension. 10% DMSO plus or minus drug. 150 uM Fe^+++ and 50 uM Fe^++. The incubation is started by the rapid addition of iron to the otherwise complete reaction. The iron solutions are prepared fresh as ferric chloride and ferrous ammonium sulfate in argon-purged water. Following the 10 min incubation, the reaction is stopped by the addition of 500 ul ice-cold 12% trichloroacetic acid prepared in 0.5 N hydrochloric acid. Water (300 ul) is then added along with 100 ul of freshly prepared thiobarbituric acid (3.3% in 0.5N sodium hydroxide) and 10 ul of 5mM desferrioxamine. The sample is then heated in a boiling water bath for 20 minutes. The samples are cooled and centrifuged for 15 minutes at 1500 xg and the absorbance of the supernatant fraction is read at 532 nm. The % inhibition of MDA formation is calculated by dividing the absorbance of sample containing drug by the absorbance of samples incubated without drug. Reaction blanks are samples incubated in the absence of iron A compound that inhibits MDA formation by 50% or more at a concentration of 200μM or less is considered "active".

Row | Compound | inhibition of angiogenesis (angiogenesis) | inhibition of conjugated diene formation [1] | arachidonic acid antagonism (elevation of LD50 of arachidonic acid) (arachidonic acid) | inhibition of MDA formation [2]
1 | C[C@]12CCC(=O)C=C1CC[C@@H]1C2=CC[C@@]2(C)[C@H]1CC[C@]2(O)C(=O)CN1CCN(c2ccccn2)CC1.Cl [Example 3, 17α-Hydroxy-21-[4-(2-pyridinyl) 1 piperazinyl]pregna-4,9(11)-diene-3,20dione hydrogen chloride salt] | demonstrate inhibition of angiogenesis |  |  | 
2 | COc1cccc(N2CCN(CC(=O)[C@@]3(O)CC[C@H]4[C@@H]5CCC6=CC(=O)CC[C@]6(C)C5=CC[C@@]43C)CC2)n1 [Example 11, 17α-Hydroxy-21-[4-(2-methoxyphenyl)-1-piperazinyi]-pregna-4,9(11)-diene-3,20-dione] |  | demonstrate such activity | demonstrate arachidonic acid antagonism | 
3 | CN(C)c1cc(N2CCN(CC(=O)[C@@]3(O)CC[C@H]4[C@@H]5CCC6=CC(=O)CC[C@]6(C)C5=CC[C@@]43C)CC2)nc(N(C)C)n1.Cl [Example 12, 17α-Hydroxy-21-[4-[2,6-bis(dimethylamino)-4-pyrimidinyl]1-piperazinyl]pregna-4,9(11)-diene-3,20-dione hydrochloride salt] | demonstrate inhibition of angiogenesis | demonstrate such activity | demonstrate arachidonic acid antagonism | 
4 | CS(=O)(=O)O.Cc1cnc(C)c(N2CCN(CC(=O)[C@@]3(O)CC[C@H]4[C@@H]5CCC6=CC(=O)CC[C@]6(C)C5=CC[C@@]43C)CC2)n1.O [Example 13, 17α-Hydroxy-21-[4-(3,6-dimethylpyrazinyl)-1-piperazinyl]pregna-4,9(11)-diene-3,20-dione monomethane sulfonate hydrate] | demonstrate inhibition of angiogenesis | demonstrate such activity | demonstrate arachidonic acid antagonism | 
5 | CCN(CC)c1nc(N2CCCC2)cc(N2CCN(CC(=O)[C@@]3(O)CC[C@H]4[C@@H]5CCC6=CC(=O)CC[C@]6(C)C5=CC[C@@]43C)CC2)n1 [Example 14, 21-[4-[2-(Diethylamino)-6-(1-pyrrolidinyl)-4-pyrimidinyl]-pyrimidinyl]-1-piperazinyl]-17α-hydroxy-pregna-4,9(11)-diene-3,20-dione dihydrochloride hydrate] |  | demonstrate such activity | demonstrate arachidonic acid antagonism | 
6 | CCN(CC)c1cc(N2CCN(CC(=O)[C@@]3(O)CC[C@H]4[C@@H]5CCC6=CC(=O)CC[C@]6(C)C5=CC[C@@]43C)CC2)nc(N(CC)CC)n1 [Example 16, 17α-Hydroxy-21-[4-[2,6-bis(diethylamino)pyrimidinyl]-1-piperazinyl]pregna4,9(11)-diene-3,20-dione dihydro-chloridehydrate] |  | demonstrate such activity | demonstrate arachidonic acid antagonism | 
7 | CCN(CC)c1cc(N2CCN(CC(=O)[C@@]3(O)[C@H](C)C[C@H]4[C@@H]5CCC6=CC(=O)C=C[C@]6(C)C5=CC[C@@]43C)CC2)nc(N(CC)CC)n1.Cl.O [Example 18, 21-[4-[2,6-Bis(diethylamino)-4-pyrimidinyl]-1-piperazinyl]-17α-hydroxy-16α-methylpregna-1,4,9(11)-triene-3,20-dione hydrochloride hydrate] | demonstrate inhibition of angiogenesis | demonstrate such activity |  | 
8 | C[C@]12CC[C@H]3[C@@H](CCC4=CC(=O)CC[C@@]43C)[C@@H]1CC[C@@H]2C(=O)CN1CCN(c2ccccn2)CC1.Cl.Cl.O [Example 40, 21-[4-(2-pyridinyl)-1-piperazinyl]pregn-4-ene-3,20 dione dihydrochloride hydrate] | demonstrate inhibition of angiogenesis | demonstrate such activity |  | 
9 | COc1ccccc1N1CCN(CC(=O)[C@@]2(O)CC[C@H]3[C@@H]4CCC5=CC(=O)CC[C@]5(C)[C@H]4CC[C@@]32C)CC1.Cl.Cl.O [Example 41, 17α-hydroxy-21-[4-(2-methoxyphenyl)-1-piperazinyl]-pregn-4-ene-3,20-dione dihydrochloride hydrate] | demonstrate inhibition of angiogenesis | demonstrate such activity |  | 
10 | C[C@]12CCC(=O)C=C1CC[C@@H]1[C@@H]2CC[C@@]2(C)[C@H]1CC[C@]2(O)C(=O)CN1CCN(c2ccccn2)CC1.Cl.Cl.O [Example 43, 17α-hydroxy-21-[4-(2-pyridinyl)-1-piperazinyl]-pregna-4-ene-3,20-dione dihydrochloride hydrate] | demonstrate inhibition of angiogenesis | demonstrate such activity |  | 
11 | C[C@H]1C[C@H]2[C@@H]3CC[C@H]4CC(=O)CC[C@]4(C)C3=CC[C@]2(C)[C@@]1(O)C(=O)CN1CCN(c2ccccn2)CC1.Cl.Cl.O [Example 44, 17α-hydroxy-16β-methyl-21-[4-(2-pyridinyl)-1-piperazinyl]-5α-pregn-9(11)-ene-3,20-dione dihydrochloride hydrate] | demonstrate inhibition of angiogenesis | demonstrate such activity |  | 
12 | C[C@]12CC(=O)[C@H]3[C@@H](CCC4=CC(=O)CC[C@@]43C)[C@@H]1CC[C@@H]2C(=O)CN1CCN(c2ccccn2)CC1.Cl.O [Example 45, 21-[4-(2-pyridinyl)-1-piperazinyl]pregn-4-ene-3,11,20-trione hydrochloride hydrate] | demonstrate inhibition of angiogenesis | demonstrate such activity |  | 
13 | Cc1nnc(N2CCN(CC(=O)[C@@]3(O)CC[C@H]4[C@@H]5CCC6=CC(=O)CC[C@]6(C)C5=CC[C@@]43C)CC2)n1-c1ccccc1.Cl.Cl.O [Example 48, 17α-hydroxy-21-[4-[(5-methyl)-4-phenyl-4H-1,2,4-triazol-3-yl]-1-piperazinyl]pregna-4,9(11)-diene-3,20-dione dihydrochloride hydrate] | demonstrate inhibition of angiogenesis |  |  | 
14 | C[C@]12CCC(=O)C=C1CC[C@@H]1C2=CC[C@@]2(C)[C@H]1CC[C@]2(O)C(=O)CN1CCN(c2cc(N3CCCC3)ccc2N)CC1.Cl [Example 52, 21-[4-[2-amino-5-(1-pyrrolidinyl)phenyl]-1-piperazinyl]-17α-hydroxypregna-4,9(11)-diene-3,20-dione hydrochloride] | demonstrate inhibition of angiogenesis | demonstrate such activity |  | demonstrate such activity
15 | C[C@]12CC[C@@H](O)C[C@H]1CC[C@@H]1[C@@H]2C(=O)C[C@@]2(C)[C@H]1CC[C@]2(O)C(=O)CN1CCN(c2ccccn2)CC1 [Example 99, 3α,17α-dihydroxy-21-[4-(2-pyridinyl)-1-piperazinyl]-5β-pregnane-11,20-dione dihydrochloride hydrate] |  | demonstrate such activity | demonstrate arachidonic acid antagonism | 
16 | CC(=O)N1CCN(CC(=O)[C@@]2(O)CC[C@H]3[C@@H]4CCC5=CC(=O)CC[C@]5(C)C4=CC[C@@]32C)CC1 [Example 100, 21-(4-acetyl-1-piperazinyl)-17α-hydroxypregna-4.9(11)-diene-3, 20-dione] |  |  | demonstrate arachidonic acid antagonism | 
17 | CN1CCN(CC(=O)[C@@]2(O)CC[C@H]3[C@@H]4CCC5=CC(=O)CC[C@]5(C)C4=CC[C@@]32C)CC1 [Example 101, 17α-hydroxy-21-(4-methyl-1-piperazinyl)-pregna-4,9(11)-diene-3,20-dione] |  |  | demonstrate arachidonic acid antagonism | 
